Source: publication PMC6921004, “Structural Characterization of Full-Length Human Dehydrodolichyl Diphosphate Synthase Using an Integrative Computational and Experimental Approach” (Biomolecules, 2019)
No constants are given. Whether binding was seen depends on the method and setting. Some results given as binding are weak or reduced against the parent protein; the word gives no strength.

Target: Dehydrodolichyl diphosphate synthase (DHDDS), full-length human (human) (UniProt Q86SQ9)
Assay: SAXS in-line with SEC; ESRF BM29; ~8 mg/mL, 50 uL on Superdex-200 increase 10/300 GL; Tris-HCl pH 7.5, 150 mM NaCl, 20 mM beta-mercaptoethanol, 0.02% Triton X-100; 20 °C; both purified

binding: binds
B1: Dehydrodolichyl diphosphate synthase (DHDDS), full-length human (enzyme, UniProt Q86SQ9 1-333, looked up)
chain: MSWIKEGELSLWERFCANIIKAGPMPKHIAFIMDGNRRYAKKCQVERQEGHSQGFNKLAETLRWCLNLGILEVTVYAFSIENFKRSKSEVDGLMDLARQKFSRLMEEKEKLQKHGVCIRVLGDLHLLPLDLQELIAQAVQATKNYNKCFLNVCFAYTSRHEISNAVREMAWGVEQGLLDPSDISESLLDKCLYTNRSPHPDILIRTSGEVRLSDFLLWQTSHSCLVFQPVLWPEYTFWNLFEAILQFQMNHSVLQKARDMYAEERKRQQLERDQATVTEQLLREGLQASGDAQLRRTRLHKLSARREERVQGFLQALELKRADWLARLGTASA
notes: Dehydrodolichyl diphosphate synthase (DHDDS), human, UniProt Q86SQ9, full length; synthesized gene cloned into pET-32b between NdeI and BamHI; Expressed as a TRX fusion with a 6xHis-tag and a TEV site; the tag and the fusion were removed by TEV protease; also called hDHDDS; human DHDDS; source: E. coli T7 express, purified (TALON-Superflow, TEV cleavage, second TALON-Superflow, Superdex-200 SEC)
